The full ranking holds about 3,200 compounds; the median of “TSA(with NAD+) / Primary screening (TSA) / delta Tm (K)” is about -0.04, and the highest 2% start at about 0.37. Some of the results follow.
Biological target: NAD-dependent deacetylase Sirtuin 1 (human, UniProt Q96EB6)
Test: primary screen, delta tm
Set-up: single well (n = 1, as 'the same TSA')
Conditions: 10 µM

Protein sequences, listed by entry. Tags and fused reporters are not part of them. Residues count along the entry.
UniProt Q96EB6, 2-747 limits assumed: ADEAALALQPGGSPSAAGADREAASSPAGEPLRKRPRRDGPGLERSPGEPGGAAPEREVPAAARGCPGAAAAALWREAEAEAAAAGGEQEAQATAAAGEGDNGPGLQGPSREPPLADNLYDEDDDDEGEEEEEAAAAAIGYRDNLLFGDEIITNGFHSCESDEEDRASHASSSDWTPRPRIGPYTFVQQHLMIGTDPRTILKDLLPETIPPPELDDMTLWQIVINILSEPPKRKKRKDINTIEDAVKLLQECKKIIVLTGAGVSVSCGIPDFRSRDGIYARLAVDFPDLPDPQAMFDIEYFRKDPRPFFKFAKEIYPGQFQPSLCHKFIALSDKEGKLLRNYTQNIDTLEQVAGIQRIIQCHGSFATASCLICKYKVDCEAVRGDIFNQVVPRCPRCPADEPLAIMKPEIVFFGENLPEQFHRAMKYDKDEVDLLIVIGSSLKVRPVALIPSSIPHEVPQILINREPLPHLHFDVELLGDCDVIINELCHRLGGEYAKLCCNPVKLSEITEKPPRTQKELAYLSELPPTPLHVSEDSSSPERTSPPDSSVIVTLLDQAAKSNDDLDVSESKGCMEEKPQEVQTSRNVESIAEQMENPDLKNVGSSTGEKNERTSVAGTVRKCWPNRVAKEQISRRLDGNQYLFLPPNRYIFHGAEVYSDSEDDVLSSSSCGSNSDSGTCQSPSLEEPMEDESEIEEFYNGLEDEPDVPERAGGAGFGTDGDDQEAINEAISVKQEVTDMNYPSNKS

Row | SMILES | TSA(with NAD+) / Primary screening (TSA) / delta Tm (K)
1 | CCCOc1ccc(C(=O)C2=C(O)C(=O)N(CCN3CCOCC3)C2c2ccc(OC)cc2)cc1 (centres unmarked) | 0.05 K
2 | Cc1ccc2[nH]c3c(c2c1)CCCC3=O | -0.01 K
3 | c1ccc2c(c1)oc1c(N3CCC(n4ccnn4)CC3)ncnc12 | -0.23 K
4 | COc1ccccc1SCc1cc(=O)n2ccccc2n1 | 0.02 K
5 | COc1cc(C=C(C(=O)NCC2CCCO2)C(=O)NCC2CCCO2)ccc1OCC(=O)Nc1ccc(C)cc1 (centres unmarked) | -0.15 K
6 | CC1CCc2c(sc3ncnc(OCC(=O)N4CCc5ccccc54)c23)C1 (centres unmarked) | 0.15 K
7 | COc1cc(OC)c(OC)cc1C=C1C(=O)NC(=S)NC1=O | -0.16 K
8 | CC1CCc2c(sc3ncnc(N4CCC(C(N)=O)CC4)c23)C1 (centres unmarked) | 0.26 K
9 | CCOC(=O)c1sc2nc(CSc3nncn3-c3ccccc3)[nH]c(=O)c2c1C | -0.13 K
10 | O=S(=O)(c1ccc(C(F)(F)F)cc1)N1CCNCC1 | 0.03 K
11 | Cc1ccc(N(C)S(=O)(=O)c2cccc(C(=O)NCCCn3cnc4ccccc43)c2)cc1 | 0.03 K
12 | COc1ccc(C=C2C(=O)NC(=S)NC2=O)cc1OC | -0.23 K
13 | COc1ccc(C(=O)C2=C(O)C(=O)N(CCCN3CCOCC3)C2c2ccncc2)cc1OC (centres unmarked) | -0.11 K
14 | CNC(=O)CCN(C)c1cccc(F)c1C#N | -0.34 K
15 | Cn1c(SCCCC(=O)c2ccccc2)nc2ccsc2c1=O | -0.12 K
16 | O=C(NC(c1ccccc1)c1ccc2nc(C(F)(F)F)[nH]c2c1)C1=COCCO1 (centres unmarked) | -0.14 K
17 | CC(C)N(Cc1ccccc1)C(=O)COC(=O)/C=C/c1ccc(S(=O)(=O)N2CCCCCC2)cc1 | 0.05 K
18 | CC(OC(=O)/C=C/c1ccc2c(c1)OCO2)C(=O)Nc1cccc([N+](=O)[O-])c1 (centres unmarked) | -0.09 K
19 | O=C1NC(=O)C(=Cc2cn(-c3ccccc3)nc2-c2cc3ccccc3o2)C(=O)N1 | -0.11 K
20 | O=C(O)CC[C@@H](O)C(=O)O | -0.03 K
21 | NC(=S)c1ccc(C(=O)N2CCCC(C(=O)NC3CC3)C2)cc1 (centres unmarked) | 0.11 K
22 | CCC(CC)C(O)CN (centres unmarked) | 0.09 K
23 | O=C(NCCn1cnc2ccccc21)c1ccc(N2CCCCC2=O)cc1 | -0.11 K

Row | SMILES | TSA(with NAD+) / Primary screening (TSA) / delta Tm (K)
24 | O=C(O)CN1C(=O)COc2ccccc21 | -0.11 K
25 | Cc1cc(C)n(-c2cccc(N3CC(C(=O)O)CC3=O)c2)n1 (centres unmarked) | -0.09 K
26 | O=C(Nc1cccc(S(=O)(=O)N2CCOCC2)c1)c1ccccc1OCc1ccccc1 | -0.08 K
27 | O=C(CCCc1nc2ccccc2s1)Nc1cccc(S(=O)(=O)NCc2ccco2)c1 | -0.11 K
28 | Cn1c(=O)[nH]c(=O)c2c1nc(N1CCC(C(N)=O)CC1)n2CCSc1nc2ccccc2s1 | -0.11 K
29 | CCc1ccc(CNC(=O)CCCc2nc(-c3ccc(F)cc3)no2)cc1 | -0.01 K
30 | Cc1ccc(-c2nc(CC(=O)Nc3cccc(Cn4[nH]c(=O)ccc4=O)c3)cs2)o1 | -0.09 K
31 | CCn1c(C)cc(C(=O)OC(C)C(=O)Nc2ccc(C(N)=O)cc2)c1C (centres unmarked) | -0.02 K
32 | Cc1ccc(C(C)C)c(OCC(=O)Nc2cc(C(N)=O)ccc2N2CCCC2)c1 | 0.06 K
33 | COc1cc(CN(C)C(=O)c2ccc(C)c(NC(=O)c3ccco3)c2)ccc1OCc1ccccc1 | -0.08 K
34 | CCc1ccc(C(=O)Nc2ccccc2C(=O)OC)cc1 | -0.02 K
35 | O=C(CN1CCN(C(=O)c2ccc(-c3ccccc3Cl)o2)CC1)Nc1cccc(F)c1 | 0.07 K
36 | COc1ccc(-n2c(C)c(C)c3c(N)ncnc32)cc1 | -0.21 K
37 | CCC(NC(=O)c1ccc(C(N)=O)cc1)C(c1ccc(C)cc1)n1cncn1 (centres unmarked) | 0.06 K
38 | CC(N)CCc1ccc(O)cc1 (centres unmarked) | -0.13 K
39 | O=C1CC(Cc2ccc(NC(=O)c3cc4ccccc4[nH]3)cc2)C(=O)N1 (centres unmarked) | -0.06 K
40 | COCC(C)(N)CN (centres unmarked) | -0.02 K
41 | CN(C)C(=O)c1ccc2[nH]c3c(c2c1)CCCC3 | -0.11 K
42 | CCCOc1ccc(C2C(C(=O)c3ccco3)=C(O)C(=O)N2CCCN2CCOCC2)cc1 (centres unmarked) | 0.03 K
43 | O=C1/C(=C/c2ccccc2Br)Oc2cc(O)ccc21 | 0.08 K
44 | Oc1ccccc1O | 0.07 K
45 | COC(=O)c1ccc2[nH]c(=O)[nH]c2c1OC | -0.12 K
46 | COC(=O)Cn1c(CN2CCC(C(N)=O)CC2)nc2c1c(=O)n(C)c(=O)n2C | -0.01 K

Row | SMILES | TSA(with NAD+) / Primary screening (TSA) / delta Tm (K)
47 | CC(CSc1nc2ccccc2o1)Cn1c(N2CCC(C(N)=O)CC2)nc2c1c(=O)[nH]c(=O)n2C (centres unmarked) | -0.13 K
48 | Cc1ccccc1C1CC1C(=O)N1C2C=C(c3ccccc3)CC1CC2 (centres unmarked) | -0.23 K
49 | O=C(CCc1c[nH]c2ccccc12)Nc1nnc(-c2ccccc2)o1 | 0.39 K
50 | O=C(Nc1ccc(F)cc1F)c1ccc(/C=N/c2ccc(F)cc2F)cc1 | 0.07 K
51 | CN(CC(=O)Nc1cccc2ccccc12)C(=O)C1=COCCO1 | -0.23 K
52 | C=CCNc1nnc(SCC(=O)N(Cc2ccccc2)c2nc3c(s2)CCCC3)s1 | -0.02 K
53 | Cc1ccccc1CNC(=O)CSc1nc2ccsc2c(=O)n1C | -0.22 K
54 | O=S(=O)([O-])CCl | -0.03 K
55 | C[C@@H]1O[C@@H]1P(=O)([O-])[O-] | -0.22 K
56 | O=C(NCc1nnc2n1CCCCC2)c1ccc(-c2ccccc2)cc1 | 0.11 K
57 | O=C(CN1CCOCC1)N1CCN(Cc2ccc3c(c2)OCO3)CC1 | -0.08 K
58 | CN1CCCN(c2ccc(NC(=O)NCCCNC(=O)c3cccc(O)c3)cc2F)CC1 | -0.05 K
59 | COc1cccc(C#CCO)c1 | -0.16 K
60 | Cc1cc(C)nc(-n2nc(C)cc2NC(=O)CCc2ccc(S(=O)(=O)N3CCOCC3)cc2)n1 | -0.01 K
61 | O=S(=O)([O-])CCS | 0.01 K
62 | O=c1c2ccccc2n2c(SCC3CCCCO3)nnc2n1Cc1ccccc1 (centres unmarked) | -0.04 K
63 | O=C(CN1CCN(C(=O)c2ccc(-c3ccc(F)cc3)o2)CC1)Nc1cccc(F)c1 | 0.19 K
64 | CCc1nsc(N2CCC(Oc3ccnc(C(N)=O)c3)CC2)n1 | -0.11 K
65 | CNc1ncnc2ccsc12 | -0.24 K
66 | COCc1nc(NCC(c2ccc(OC)cc2)N2CCOCC2)c2c(-c3ccccc3)csc2n1 (centres unmarked) | -0.15 K
67 | O=C1NC(=O)C(=Cc2cn(-c3ccccc3)nc2-c2cc3c(ccc4ccccc43)oc2=O)C(=O)N1 | 0.01 K
68 | CCN(CC)S(=O)(=O)c1ccc(OC(C)C)c(NC(=O)CC23CC4CC(CC(O)(C4)C2)C3)c1 | 0.17 K
69 | COc1ccc(N(C)S(=O)(=O)c2cccc(C(=O)Nc3ccc(C)cc3)c2)cc1 | 0.11 K

Row | SMILES | TSA(with NAD+) / Primary screening (TSA) / delta Tm (K)
70 | CN(C)S(=O)(=O)c1ccc(C(=O)C2=C(O)C(=O)N(CCN3CCOCC3)C2c2ccccc2)cc1 (centres unmarked) | -0.09 K
71 | CCN(CC(=O)Nc1ccc(OC)cc1)CC(=O)Nc1ccc(C(N)=O)cc1 | -0.04 K
72 | Cc1nnc(N2CCN(C(=O)NC3CC3)CC2)c(C(N)=O)c1C | -0.01 K
73 | CCn1c(SC(C)C(=O)Nc2sc3c(c2C(N)=O)CCC3)nnc1N1CCOCC1 (centres unmarked) | -0.03 K
74 | NC(=O)NC(=O)CCN1CCN(CC(=O)Nc2ccccc2)CC1 | -0.03 K
75 | O=C(CSc1nnc(NC2CC2)s1)N(Cc1ccccc1)c1nc2c(s1)CCCC2 | -0.14 K
76 | O=C1/C(=C/c2cccc(F)c2)Oc2cc(O)ccc21 | -0.04 K
77 | CC1CCCN(CCCNC(=O)CCc2cc3ccccc3[nH]c2=O)C1 (centres unmarked) | 0.11 K
78 | CC(OC(=O)Cc1coc2cc(O)ccc12)C(=O)c1c[nH]c2ccccc12 (centres unmarked) | 0.17 K
79 | CN(c1ccccc1C(N)=O)S(=O)(=O)c1ccc2c3c(cccc13)C(=O)N2 | -0.01 K
80 | Cc1ccc(C23CC4CC(CC(C(=O)OCC(N)=O)(C4)C2)C3)cc1C | -0.16 K
81 | COC(=O)Cn1c(=O)c(C(=O)COC(=O)C2CC(O)CN2S(=O)(=O)c2ccc3ccccc3c2)c(N)n(Cc2ccccc2)c1=O (centres unmarked) | 0.23 K
82 | CCn1c(SCC(=O)NCc2cccs2)nc2ccsc2c1=O | 0.06 K
83 | COc1ccc(C(=O)C2=C(O)C(=O)N(CCCN3CCOCC3)C2c2ccc(C)cc2)cc1OC (centres unmarked) | -0.09 K
84 | c1ccc2c3c(ccc2c1)C(Nc1ccc2nnnn2n1)CCCO3 (centres unmarked) | 0.15 K
85 | CCn1cnnc1C1CCN(c2ncc([N+](=O)[O-])cc2C(N)=O)CC1 | 0.02 K
86 | O=C(NC1CCN(Cc2ccccc2)C1=O)c1cccnc1S (centres unmarked) | -0.11 K
87 | COc1ccc(C(=O)C2=C(O)C(=O)N(CCCN3CCOCC3)C2c2ccc(OC)cc2)cc1 (centres unmarked) | -0.03 K
88 | C/C=C/c1ccc(OCC(=O)Nc2cccc(S(=O)(=O)NCc3ccco3)c2)c(OC)c1 | -0.11 K
89 | O=C(COc1ccccc1Cc1ccccc1)NNC(=O)C1=COCCO1 | -0.11 K
90 | O=C(C1=C(O)C(=O)N(CCCN2CCOCC2)C1c1ccc(F)cc1)c1cc2ccccc2o1 (centres unmarked) | 0.06 K
91 | Cc1ccc(C(=O)C2=C(O)C(=O)N(CCCN3CCOCC3)C2c2ccc(OC(C)C)cc2)o1 (centres unmarked) | 0.02 K
92 | Cc1ccc(C(=O)Nc2ccc(N3CCN(Cc4ccccc4)CC3)cc2)cc1NC(=O)c1ccco1 | 0.12 K
